Data on eight targets can be found in the supplement of paper PMC10849652.

The chains behind the UniProt entries cited, without tags or fusion partners. Where a name states a change or a piece, a line headed by the entry shows the natural chain unless it says otherwise.
UniProt O75342: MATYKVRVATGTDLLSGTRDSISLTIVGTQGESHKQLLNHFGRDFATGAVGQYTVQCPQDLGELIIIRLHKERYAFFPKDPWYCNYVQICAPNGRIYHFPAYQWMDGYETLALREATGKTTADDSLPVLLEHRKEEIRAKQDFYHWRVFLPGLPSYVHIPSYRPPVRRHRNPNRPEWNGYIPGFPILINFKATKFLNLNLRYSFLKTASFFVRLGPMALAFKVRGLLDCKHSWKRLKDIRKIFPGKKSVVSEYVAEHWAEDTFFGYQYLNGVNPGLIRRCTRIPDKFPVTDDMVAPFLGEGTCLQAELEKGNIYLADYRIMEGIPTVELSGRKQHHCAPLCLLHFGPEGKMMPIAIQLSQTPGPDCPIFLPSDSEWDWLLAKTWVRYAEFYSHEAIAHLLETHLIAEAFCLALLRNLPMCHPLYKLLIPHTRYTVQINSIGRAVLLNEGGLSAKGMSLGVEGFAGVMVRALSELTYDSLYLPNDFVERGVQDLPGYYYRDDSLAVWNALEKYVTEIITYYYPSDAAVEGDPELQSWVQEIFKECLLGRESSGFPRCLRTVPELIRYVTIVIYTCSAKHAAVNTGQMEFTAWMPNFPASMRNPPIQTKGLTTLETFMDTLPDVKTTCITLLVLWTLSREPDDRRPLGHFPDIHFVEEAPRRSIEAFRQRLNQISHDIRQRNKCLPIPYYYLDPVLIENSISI
UniProt Q9BXX3: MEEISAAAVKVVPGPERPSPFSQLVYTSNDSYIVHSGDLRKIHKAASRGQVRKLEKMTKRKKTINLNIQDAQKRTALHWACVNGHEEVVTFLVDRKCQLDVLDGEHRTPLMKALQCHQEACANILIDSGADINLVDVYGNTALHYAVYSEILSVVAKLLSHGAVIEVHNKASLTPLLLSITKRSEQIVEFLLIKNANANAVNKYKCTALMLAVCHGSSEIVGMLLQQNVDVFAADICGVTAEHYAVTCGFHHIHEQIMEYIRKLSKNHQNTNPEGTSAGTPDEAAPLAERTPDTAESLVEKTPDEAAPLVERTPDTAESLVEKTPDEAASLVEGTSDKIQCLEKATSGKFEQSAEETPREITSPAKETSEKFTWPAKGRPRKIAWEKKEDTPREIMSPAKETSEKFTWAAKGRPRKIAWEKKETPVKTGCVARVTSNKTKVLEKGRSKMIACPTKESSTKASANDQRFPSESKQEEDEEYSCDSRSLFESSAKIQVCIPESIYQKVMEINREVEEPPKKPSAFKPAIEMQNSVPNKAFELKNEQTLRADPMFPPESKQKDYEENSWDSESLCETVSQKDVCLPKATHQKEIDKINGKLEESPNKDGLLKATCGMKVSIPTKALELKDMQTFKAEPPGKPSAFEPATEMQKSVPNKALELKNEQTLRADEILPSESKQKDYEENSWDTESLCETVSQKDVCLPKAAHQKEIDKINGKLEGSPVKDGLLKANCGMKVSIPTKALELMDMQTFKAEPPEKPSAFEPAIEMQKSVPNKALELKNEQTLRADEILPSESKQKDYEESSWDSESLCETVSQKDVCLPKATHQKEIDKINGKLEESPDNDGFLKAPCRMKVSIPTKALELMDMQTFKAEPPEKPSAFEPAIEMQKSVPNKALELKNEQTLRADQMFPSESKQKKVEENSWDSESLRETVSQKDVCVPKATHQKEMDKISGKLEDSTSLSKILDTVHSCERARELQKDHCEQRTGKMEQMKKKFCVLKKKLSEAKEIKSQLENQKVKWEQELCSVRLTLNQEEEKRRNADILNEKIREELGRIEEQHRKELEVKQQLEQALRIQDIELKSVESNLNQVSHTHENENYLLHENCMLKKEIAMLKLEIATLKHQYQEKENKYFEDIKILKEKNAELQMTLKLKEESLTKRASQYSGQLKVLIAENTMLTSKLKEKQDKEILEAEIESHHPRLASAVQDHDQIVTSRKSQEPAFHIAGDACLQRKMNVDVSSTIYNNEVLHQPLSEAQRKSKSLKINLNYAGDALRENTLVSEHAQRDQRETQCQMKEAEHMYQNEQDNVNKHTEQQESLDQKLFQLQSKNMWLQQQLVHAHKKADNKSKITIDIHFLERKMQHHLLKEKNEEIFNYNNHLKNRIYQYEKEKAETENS
UniProt Q6P6B7: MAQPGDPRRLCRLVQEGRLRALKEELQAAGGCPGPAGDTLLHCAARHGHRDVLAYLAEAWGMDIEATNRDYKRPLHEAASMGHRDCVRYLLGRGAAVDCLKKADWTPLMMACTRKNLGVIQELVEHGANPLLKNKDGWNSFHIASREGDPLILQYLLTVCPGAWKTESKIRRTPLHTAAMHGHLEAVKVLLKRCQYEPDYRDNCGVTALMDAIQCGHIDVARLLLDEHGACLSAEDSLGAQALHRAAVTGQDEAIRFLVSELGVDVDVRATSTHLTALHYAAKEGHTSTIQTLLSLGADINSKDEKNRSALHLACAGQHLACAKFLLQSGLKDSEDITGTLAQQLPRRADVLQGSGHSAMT
UniProt Q01484: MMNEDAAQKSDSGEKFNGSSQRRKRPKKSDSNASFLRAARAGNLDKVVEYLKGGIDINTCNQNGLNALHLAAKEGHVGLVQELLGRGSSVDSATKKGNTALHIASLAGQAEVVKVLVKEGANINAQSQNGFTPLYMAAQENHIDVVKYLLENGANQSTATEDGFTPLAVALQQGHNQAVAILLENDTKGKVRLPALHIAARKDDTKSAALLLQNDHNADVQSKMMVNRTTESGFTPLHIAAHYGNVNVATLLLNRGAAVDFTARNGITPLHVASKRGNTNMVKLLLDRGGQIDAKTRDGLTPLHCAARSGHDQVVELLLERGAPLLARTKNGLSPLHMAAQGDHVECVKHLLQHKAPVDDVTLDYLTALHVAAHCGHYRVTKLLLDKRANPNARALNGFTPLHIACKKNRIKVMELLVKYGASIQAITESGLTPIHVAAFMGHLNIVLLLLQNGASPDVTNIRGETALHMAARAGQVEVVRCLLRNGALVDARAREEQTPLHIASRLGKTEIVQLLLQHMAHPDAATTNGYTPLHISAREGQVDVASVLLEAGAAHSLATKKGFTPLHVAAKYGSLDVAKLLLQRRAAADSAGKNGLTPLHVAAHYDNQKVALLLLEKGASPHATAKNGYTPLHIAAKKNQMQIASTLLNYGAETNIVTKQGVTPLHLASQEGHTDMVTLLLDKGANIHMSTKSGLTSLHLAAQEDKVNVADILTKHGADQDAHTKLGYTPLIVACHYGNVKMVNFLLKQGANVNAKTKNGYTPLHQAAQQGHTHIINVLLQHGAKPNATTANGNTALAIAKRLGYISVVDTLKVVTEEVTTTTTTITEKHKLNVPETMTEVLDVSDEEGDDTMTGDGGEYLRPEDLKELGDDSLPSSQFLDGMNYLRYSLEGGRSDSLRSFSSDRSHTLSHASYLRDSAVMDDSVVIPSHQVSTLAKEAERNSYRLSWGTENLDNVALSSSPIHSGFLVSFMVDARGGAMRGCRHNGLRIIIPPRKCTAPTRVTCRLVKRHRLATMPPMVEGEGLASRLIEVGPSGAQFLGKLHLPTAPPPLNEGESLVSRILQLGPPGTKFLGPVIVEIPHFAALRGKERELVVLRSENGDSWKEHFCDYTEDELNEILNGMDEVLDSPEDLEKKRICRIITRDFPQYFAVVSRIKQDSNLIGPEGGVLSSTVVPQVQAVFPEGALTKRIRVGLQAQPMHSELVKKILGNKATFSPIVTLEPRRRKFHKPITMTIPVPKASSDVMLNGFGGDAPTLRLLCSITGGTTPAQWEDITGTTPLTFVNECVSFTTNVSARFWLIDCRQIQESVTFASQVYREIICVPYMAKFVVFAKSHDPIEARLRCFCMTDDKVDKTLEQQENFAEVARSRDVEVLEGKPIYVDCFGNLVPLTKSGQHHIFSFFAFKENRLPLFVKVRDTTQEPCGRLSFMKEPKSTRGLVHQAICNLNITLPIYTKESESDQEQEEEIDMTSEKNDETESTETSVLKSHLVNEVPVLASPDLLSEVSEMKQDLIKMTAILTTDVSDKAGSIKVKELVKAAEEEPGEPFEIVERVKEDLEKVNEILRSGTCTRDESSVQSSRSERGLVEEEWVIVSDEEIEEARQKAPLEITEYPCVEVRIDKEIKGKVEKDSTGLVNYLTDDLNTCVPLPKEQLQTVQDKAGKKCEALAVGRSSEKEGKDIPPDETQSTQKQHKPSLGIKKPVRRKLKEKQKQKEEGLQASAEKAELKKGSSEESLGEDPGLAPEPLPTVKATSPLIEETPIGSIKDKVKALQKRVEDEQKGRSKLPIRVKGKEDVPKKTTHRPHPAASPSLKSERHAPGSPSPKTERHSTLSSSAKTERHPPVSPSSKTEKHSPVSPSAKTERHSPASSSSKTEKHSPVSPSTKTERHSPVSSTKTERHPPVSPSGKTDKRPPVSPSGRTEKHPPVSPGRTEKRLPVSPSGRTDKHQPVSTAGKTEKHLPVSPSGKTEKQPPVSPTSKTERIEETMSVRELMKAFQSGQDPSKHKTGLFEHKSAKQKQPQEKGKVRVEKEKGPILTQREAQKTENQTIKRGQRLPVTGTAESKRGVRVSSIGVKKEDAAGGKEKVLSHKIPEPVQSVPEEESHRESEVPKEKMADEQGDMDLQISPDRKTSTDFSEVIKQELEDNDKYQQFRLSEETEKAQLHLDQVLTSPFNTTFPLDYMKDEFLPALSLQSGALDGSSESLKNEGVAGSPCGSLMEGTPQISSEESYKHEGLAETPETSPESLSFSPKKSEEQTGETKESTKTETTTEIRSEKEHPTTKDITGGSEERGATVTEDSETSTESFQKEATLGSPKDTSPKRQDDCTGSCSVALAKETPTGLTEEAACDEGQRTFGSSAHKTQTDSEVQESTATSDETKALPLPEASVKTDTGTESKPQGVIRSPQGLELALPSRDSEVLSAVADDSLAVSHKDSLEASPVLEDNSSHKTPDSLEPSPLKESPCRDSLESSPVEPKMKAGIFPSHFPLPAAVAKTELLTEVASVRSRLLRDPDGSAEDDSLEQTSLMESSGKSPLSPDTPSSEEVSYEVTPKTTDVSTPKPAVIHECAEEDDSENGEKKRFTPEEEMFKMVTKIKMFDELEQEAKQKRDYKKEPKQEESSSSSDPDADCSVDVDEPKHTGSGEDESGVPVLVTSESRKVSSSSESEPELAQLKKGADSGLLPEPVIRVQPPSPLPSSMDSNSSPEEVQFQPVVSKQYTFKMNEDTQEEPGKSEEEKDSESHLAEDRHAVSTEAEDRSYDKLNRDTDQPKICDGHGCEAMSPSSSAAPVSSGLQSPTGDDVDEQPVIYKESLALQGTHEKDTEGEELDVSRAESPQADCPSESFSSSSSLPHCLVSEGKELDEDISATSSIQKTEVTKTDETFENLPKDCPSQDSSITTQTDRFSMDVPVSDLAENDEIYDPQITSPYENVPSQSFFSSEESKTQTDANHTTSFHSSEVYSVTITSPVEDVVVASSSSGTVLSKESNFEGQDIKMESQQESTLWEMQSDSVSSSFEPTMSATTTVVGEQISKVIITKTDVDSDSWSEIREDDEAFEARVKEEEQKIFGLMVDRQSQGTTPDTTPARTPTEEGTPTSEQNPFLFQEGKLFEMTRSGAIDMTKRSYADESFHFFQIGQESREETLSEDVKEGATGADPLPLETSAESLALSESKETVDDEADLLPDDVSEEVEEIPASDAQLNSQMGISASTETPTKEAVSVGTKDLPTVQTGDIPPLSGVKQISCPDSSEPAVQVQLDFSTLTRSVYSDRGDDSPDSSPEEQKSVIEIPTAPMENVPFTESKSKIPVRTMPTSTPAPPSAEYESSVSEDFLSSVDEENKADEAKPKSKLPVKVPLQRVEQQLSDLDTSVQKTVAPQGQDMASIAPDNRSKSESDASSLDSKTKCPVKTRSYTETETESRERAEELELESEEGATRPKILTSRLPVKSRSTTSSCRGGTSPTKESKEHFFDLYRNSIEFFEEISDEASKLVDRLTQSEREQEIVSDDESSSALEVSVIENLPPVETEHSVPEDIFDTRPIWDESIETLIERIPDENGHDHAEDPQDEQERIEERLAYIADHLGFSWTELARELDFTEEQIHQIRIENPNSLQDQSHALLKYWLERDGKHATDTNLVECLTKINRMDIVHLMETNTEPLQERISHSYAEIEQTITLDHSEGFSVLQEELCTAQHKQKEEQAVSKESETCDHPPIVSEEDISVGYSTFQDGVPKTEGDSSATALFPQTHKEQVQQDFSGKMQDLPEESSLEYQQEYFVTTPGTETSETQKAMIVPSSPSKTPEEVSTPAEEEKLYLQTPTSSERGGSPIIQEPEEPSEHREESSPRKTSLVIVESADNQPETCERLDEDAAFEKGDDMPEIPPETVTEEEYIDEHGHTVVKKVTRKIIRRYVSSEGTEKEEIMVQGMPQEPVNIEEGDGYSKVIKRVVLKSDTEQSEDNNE

This is one part of the list.

Compound in one test: C1=CC=C(C=C1)[C@H](COC2=CC3=C(C=C2)NC(=O)N3)NC(=O)C4=CC=CN(C4=O)CC5=CC(=C(C=C5)F)F
Briefly: log2 fold change, soluble protein after heating vs DMSO (PISA); higher = thermal stabilisation; K562 lysate, 10 uM; active = over 0.2 and 3.5 SD of the protein, either way, in both replicates (recomputed). In outline:
(§1)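 Soluble protein was defined as the supernatant remaining after 21,000xg for 90 min, following pooling of heated aliquots and adjustment to 0.5% NP-40 at 4°C. Before that, crude K562 extract at 1 mg/mL protein in PBS pH 7.4 with 1 mM MgCl2 was treated with 10 μM compound for 30 min and heated for 3 min across 48°C-58°C. Quantification used TMTpro 16plex LC-MS/MS with channel sums equalised, and values are log-two fold changes in thermal stability relative to solvent controls from duplicates.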
With ANXA2 (UniProt H0YL33), the log2 fold change is inactive: 0.079.
Regarding ALOX12B (UniProt O75342), the log2 fold change was inactive: -0.006.
On the same count and under the same terms, the figure for ALAS1 (UniProt P13196) is inactive: 0.058.
For ANKRD30A (UniProt Q9BXX3), the log2 fold change is inactive: -0.04.
For AP2S1 (UniProt M0QZ21), the log2 fold change was inactive: -0.059.
The same measure, in the same setting: the figure for ANKRD16 (UniProt Q6P6B7) is inactive: 0.21.
Still for that read-out and setting: for ANK2 (UniProt Q01484) the value was inactive: 0.019; for ALG10B (UniProt Q5I7T1), inactive: 0.016.

Compound in a further test: CC1=C(SC2=C1C(=N[C@H](C3=NN=C(N32)C)CC(=O)N)C4=CC=C(C=C4)Cl)C
The test is described as above. Put shortly:
as §1
As for ANXA2 (UniProt H0YL33), the log2 fold change was inactive: -0.079.
In the case of ALOX12B (UniProt O75342), the log2 fold change was inactive: 0.034.
For ALAS1 (UniProt P13196), the log2 fold change is inactive: -0.431.
On the same count and under the same terms, the figure for ANKRD30A (UniProt Q9BXX3) is inactive: -0.051; for AP2S1 (UniProt M0QZ21) it is inactive: -0.01.
Still for that read-out and setting: for ANKRD16 (UniProt Q6P6B7) the value was inactive: 0.028; for ANK2 (UniProt Q01484), inactive: -0.23; for ALG10B (UniProt Q5I7T1), inactive: 0.069.
